# Measured values: publication PMC11149935, “SAFB regulates hippocampal stem cell fate by targeting Drosha to destabilize Nfib mRNA” (eLife, 2024)
# The chains behind the UniProt entries cited, without tags or fusion partners.
# UniProt Q501J6: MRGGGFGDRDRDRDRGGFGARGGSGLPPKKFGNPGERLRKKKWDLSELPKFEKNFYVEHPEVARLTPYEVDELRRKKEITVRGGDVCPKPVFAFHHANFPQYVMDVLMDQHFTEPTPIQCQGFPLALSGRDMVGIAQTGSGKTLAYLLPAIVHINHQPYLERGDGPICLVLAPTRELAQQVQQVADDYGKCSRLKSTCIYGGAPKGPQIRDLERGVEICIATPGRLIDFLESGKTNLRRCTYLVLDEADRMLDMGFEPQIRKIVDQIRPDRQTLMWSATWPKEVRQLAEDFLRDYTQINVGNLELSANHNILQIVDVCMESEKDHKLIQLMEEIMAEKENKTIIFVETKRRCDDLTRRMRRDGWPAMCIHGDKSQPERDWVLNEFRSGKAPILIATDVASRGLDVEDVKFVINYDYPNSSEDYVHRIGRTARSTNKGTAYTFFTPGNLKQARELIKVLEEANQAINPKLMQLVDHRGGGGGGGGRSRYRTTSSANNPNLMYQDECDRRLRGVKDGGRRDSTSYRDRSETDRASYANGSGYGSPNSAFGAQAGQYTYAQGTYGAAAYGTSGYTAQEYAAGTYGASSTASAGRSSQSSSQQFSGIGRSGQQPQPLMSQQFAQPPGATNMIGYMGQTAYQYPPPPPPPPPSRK
# UniProt O70133: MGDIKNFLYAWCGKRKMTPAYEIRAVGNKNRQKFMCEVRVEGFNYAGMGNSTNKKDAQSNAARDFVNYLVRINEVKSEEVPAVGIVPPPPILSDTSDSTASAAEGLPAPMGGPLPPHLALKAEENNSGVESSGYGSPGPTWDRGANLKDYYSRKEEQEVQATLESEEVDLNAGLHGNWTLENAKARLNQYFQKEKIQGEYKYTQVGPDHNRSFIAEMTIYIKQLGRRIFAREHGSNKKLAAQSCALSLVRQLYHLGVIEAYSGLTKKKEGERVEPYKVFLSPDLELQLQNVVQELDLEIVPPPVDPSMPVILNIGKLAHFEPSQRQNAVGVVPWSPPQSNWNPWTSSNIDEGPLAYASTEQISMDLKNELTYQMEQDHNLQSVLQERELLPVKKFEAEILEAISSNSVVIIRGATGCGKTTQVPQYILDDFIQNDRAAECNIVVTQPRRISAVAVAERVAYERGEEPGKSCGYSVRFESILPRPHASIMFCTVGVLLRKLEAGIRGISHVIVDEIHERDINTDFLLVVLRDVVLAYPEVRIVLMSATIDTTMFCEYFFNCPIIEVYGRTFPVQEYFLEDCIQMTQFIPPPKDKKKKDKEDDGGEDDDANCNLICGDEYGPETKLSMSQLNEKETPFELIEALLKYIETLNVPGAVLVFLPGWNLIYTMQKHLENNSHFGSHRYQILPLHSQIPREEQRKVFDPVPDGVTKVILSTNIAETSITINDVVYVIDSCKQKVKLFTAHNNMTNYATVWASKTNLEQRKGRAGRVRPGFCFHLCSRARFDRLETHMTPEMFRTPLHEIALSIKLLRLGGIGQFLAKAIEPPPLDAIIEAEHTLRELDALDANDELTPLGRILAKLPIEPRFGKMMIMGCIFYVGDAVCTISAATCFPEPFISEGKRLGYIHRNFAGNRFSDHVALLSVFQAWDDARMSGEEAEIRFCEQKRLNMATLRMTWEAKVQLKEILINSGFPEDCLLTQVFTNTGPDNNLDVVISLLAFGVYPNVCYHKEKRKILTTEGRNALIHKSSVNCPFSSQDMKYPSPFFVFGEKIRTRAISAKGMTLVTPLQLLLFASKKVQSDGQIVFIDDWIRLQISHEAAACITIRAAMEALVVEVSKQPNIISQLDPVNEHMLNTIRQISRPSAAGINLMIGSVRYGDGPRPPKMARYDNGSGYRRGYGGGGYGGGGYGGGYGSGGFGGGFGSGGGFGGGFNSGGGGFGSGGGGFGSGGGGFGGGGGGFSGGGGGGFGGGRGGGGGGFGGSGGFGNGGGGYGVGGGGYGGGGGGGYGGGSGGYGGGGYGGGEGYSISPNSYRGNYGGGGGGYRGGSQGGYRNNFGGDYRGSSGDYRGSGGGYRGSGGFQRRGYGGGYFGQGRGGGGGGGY
# UniProt Q60749: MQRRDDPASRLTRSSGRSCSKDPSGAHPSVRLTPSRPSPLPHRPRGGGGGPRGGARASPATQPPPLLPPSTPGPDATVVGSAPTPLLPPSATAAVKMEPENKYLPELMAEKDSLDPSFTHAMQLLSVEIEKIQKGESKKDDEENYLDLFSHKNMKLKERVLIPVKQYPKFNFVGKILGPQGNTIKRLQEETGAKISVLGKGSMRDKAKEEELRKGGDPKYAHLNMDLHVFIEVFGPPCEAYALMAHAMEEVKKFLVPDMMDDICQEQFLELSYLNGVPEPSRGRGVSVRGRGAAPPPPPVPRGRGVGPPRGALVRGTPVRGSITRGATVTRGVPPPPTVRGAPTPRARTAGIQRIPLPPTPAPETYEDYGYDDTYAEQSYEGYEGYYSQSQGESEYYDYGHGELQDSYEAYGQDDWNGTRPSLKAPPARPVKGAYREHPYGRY
# UniProt Q921F2: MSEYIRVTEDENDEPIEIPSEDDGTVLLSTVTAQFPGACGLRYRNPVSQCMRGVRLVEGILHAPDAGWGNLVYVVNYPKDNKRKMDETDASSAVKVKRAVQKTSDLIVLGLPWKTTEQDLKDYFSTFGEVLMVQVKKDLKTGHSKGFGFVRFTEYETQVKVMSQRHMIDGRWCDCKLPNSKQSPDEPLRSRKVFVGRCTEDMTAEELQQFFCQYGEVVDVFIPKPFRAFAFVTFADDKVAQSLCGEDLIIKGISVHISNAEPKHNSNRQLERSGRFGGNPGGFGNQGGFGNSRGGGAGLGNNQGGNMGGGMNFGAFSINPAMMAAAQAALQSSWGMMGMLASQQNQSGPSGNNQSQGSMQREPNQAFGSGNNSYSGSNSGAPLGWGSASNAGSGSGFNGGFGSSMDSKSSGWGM
# UniProt Q9WVA3: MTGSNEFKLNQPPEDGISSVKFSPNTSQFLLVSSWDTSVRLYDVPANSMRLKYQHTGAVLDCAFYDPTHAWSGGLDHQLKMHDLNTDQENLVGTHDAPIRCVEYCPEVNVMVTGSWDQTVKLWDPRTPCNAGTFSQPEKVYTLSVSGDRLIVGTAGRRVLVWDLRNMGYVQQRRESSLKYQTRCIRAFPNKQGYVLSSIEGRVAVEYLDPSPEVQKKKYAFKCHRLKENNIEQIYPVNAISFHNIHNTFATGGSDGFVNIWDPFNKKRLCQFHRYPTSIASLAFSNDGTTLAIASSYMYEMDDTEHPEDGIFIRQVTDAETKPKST
# UniProt O88569: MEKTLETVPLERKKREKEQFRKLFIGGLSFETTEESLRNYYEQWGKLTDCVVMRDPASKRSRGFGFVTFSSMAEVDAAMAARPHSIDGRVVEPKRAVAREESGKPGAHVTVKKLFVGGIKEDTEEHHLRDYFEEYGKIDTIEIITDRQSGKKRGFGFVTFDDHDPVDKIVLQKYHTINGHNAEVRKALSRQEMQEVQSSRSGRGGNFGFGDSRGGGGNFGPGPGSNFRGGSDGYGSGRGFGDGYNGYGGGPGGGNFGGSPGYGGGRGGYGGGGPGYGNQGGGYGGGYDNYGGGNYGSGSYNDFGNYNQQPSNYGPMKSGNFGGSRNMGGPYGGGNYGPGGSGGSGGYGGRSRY
# UniProt Q80YR5: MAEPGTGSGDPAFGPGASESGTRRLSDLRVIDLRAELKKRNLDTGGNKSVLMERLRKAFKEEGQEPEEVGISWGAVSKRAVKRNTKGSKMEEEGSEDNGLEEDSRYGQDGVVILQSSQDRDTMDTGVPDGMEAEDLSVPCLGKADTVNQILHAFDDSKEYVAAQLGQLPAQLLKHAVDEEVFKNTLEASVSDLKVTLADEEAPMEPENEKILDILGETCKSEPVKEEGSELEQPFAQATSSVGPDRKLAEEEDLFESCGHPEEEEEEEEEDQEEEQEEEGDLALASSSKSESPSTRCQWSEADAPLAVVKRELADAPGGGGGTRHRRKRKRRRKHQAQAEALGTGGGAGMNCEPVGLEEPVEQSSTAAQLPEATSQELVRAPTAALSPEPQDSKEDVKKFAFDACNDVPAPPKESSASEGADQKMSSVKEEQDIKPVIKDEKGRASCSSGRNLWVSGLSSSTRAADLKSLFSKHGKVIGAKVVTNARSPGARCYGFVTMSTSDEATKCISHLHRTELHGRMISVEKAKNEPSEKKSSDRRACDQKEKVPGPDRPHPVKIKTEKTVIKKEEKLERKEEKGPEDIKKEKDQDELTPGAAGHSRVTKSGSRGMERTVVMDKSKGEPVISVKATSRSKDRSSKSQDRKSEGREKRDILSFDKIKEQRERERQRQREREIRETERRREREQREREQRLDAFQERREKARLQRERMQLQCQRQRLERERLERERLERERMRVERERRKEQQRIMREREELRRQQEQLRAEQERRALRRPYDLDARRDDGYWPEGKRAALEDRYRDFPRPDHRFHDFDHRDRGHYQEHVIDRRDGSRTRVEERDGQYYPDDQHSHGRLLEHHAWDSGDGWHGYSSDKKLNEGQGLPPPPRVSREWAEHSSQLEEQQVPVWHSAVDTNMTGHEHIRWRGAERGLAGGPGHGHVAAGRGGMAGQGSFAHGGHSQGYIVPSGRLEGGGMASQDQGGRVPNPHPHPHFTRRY
# UniProt D3YXK2: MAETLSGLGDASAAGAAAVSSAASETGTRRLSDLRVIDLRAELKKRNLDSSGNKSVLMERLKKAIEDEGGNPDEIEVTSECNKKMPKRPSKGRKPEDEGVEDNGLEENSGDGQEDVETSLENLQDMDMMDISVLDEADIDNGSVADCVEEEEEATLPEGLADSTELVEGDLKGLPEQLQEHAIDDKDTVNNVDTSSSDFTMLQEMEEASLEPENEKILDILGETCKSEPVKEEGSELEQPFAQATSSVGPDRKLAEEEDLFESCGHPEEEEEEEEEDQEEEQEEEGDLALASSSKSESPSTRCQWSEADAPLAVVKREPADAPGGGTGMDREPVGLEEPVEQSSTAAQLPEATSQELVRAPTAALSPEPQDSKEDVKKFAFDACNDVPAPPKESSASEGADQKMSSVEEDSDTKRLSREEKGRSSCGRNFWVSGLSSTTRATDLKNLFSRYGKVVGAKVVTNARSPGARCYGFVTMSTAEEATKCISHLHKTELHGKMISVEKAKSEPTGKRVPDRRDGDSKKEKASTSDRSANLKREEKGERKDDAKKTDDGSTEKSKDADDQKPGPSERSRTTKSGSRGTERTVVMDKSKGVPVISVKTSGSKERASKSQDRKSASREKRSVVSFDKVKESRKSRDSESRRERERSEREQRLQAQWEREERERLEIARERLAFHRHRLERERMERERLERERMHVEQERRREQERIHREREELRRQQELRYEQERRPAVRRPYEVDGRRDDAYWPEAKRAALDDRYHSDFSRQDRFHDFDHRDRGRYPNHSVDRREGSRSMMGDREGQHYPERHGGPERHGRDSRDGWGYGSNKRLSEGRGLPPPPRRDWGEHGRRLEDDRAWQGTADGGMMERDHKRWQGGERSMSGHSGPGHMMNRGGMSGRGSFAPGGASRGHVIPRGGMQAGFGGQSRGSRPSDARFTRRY
# These are yes or no findings as the source states them, for the method shown. In cells and extracts the contact can be indirect. A yes stands for co-enrichment or nearness to the bait. Other partners may have been found. No binding means not detected with the bait.
# T1: Drosha (mouse (endogenous in DG NSCs)) (UniProt Q5HZJ0)
# T1 sequence: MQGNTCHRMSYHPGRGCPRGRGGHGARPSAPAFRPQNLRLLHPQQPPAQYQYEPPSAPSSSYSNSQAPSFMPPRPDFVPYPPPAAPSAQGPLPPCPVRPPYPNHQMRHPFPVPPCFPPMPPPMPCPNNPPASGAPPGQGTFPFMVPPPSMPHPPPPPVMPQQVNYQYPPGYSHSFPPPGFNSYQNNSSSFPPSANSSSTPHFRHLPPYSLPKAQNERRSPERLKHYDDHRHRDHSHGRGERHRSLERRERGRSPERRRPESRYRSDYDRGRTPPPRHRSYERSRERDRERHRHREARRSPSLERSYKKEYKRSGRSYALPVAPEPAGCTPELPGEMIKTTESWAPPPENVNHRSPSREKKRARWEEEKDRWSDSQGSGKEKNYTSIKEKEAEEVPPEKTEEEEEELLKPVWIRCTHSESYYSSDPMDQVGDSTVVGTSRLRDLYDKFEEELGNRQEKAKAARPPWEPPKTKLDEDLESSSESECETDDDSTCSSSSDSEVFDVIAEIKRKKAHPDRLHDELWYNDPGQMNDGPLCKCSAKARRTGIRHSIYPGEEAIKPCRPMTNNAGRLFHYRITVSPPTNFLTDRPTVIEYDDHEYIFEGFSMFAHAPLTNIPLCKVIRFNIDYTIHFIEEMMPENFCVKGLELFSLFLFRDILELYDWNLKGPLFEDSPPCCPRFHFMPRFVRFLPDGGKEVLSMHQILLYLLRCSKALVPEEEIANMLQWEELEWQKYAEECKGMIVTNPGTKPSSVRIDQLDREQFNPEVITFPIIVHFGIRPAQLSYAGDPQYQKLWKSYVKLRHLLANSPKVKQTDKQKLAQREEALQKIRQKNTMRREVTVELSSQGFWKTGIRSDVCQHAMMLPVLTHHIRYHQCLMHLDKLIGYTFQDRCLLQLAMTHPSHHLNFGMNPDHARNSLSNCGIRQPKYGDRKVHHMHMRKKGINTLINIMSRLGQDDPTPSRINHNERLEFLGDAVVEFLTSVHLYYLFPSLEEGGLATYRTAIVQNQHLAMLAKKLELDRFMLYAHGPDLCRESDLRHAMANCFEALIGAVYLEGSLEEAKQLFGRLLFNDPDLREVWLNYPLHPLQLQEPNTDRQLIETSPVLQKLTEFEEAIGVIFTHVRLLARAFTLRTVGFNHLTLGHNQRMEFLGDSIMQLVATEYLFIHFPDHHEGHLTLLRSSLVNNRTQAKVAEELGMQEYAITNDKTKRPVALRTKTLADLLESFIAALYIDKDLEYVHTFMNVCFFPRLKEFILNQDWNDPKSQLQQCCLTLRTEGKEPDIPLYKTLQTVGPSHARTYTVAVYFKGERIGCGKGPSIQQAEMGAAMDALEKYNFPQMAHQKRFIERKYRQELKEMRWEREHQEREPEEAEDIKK
# Molecular target: T1, Drosha (mouse (endogenous in DG NSCs))
# Assay: affinity purification with mass spectrometry; endogenous Drosha immunoprecipitated with anti-Drosha antibody from adult mouse DG NSC lysate, on-bead trypsin digestion, LC-MS/MS with label-free quantification over control IP; hits: p<0.05, log2 fold change >=3, FDR <=0.001, peptide count >=4
row,binding,Molecule
1,binds,Ddx17 (from UniProt Q501J6 1-650)
2,binds,Dhx9 (from UniProt O70133 1-1380)
3,binds,Hnrnpu (from UniProt Q8VEK3 1-800)
4,binds,Sam68 (from UniProt Q60749 1-443)
5,binds,Tdp43 (from UniProt Q921F2 1-414)

# Continued, molecule first:
row,Molecule,binding
1,Bub3 (from UniProt Q9WVA3 1-326),binds
2,Hnrnpa2b1 (from UniProt O88569 1-353),binds
3,PKC-α (from UniProt P20444 1-672),no binding
4,SAFB2 (from UniProt Q80YR5 1-991),binds
5,SAFB-like transcription modulator (SLTM) (from UniProt Q8CH25 1-1031),binds
6,scaffold attachment factor B (SAFB) (from UniProt D3YXK2 1-937),binds
7,"Sf1 (protein, UniProt Q64213 1-653) MATGANATPLDFPSKKRKRSRWNQDTMEQKTVIPGMPTVIPPGLTREQERAYIVQLQIEDLTRKLRTGDLGIPPNPEDRSPSPEPIYNSEGKRLNTREFRTRKKLEEERHTLITEMVALNPDFKPPADYKPPATRVSDKVMIPQDEYPEINFVGLLIGPRGNTLKNIEKECNAKIMIRGKGSVKEGKVGRKDGQMLPGEDEPLHALVTANTMENVKKAVEQIRNILKQGIETPEDQNDLRKMQLRELARLNGTLREDDNRILRPWQSSETRSITNTTVCTKCGGAGHIASDCKFQRPGDPQSAQDKARMDKEYLSLMAELGEAPVPASVGSTSGPATTPLASAPRPAAPASNPPPPSLMSTTQSRPPWMNSGPSENRPYHGMHGGGPGGPGGGPHSFPHPLPSLTGGHGGHPMQHNPNGPPPPWMQPPPPPMNQGPHPPGHHGPPPMDQYLGSTPVGSGVYRLHQGKGMMPPPPMGMMPPPPPPPSGQPPPPPSGPLPPWQQQQQQPPPPPPPSSSMASSTPLPWQQNTTTTTTSAGTGSIPPWQQQQAAAAASPGTPQMQGNPTMVPLPPGVQPPLPPGAPPPPPCSIECLLCLLSSPNSLCLSPNRAARIPPRGSDGPSHESEDFPRPLVTLPGRQPQQRPWWTGWFGKAA",binds
8,"Khsrp (protein, UniProt Q3U0V1 1-748) MSDYNTGGPPPGPPPPAGGGGGAAGAGGGPPPGPPGAGDRGGGGPGGGGPGGGGASGGPSQPPGGGGPGIRKDAFADAVQRARQIAAKIGGDAATTVNNNTPDFGFGGQKRQLEDGDQPDSKKLASQGDSIGSQLGPIHPPPRTSMTEEYRVPDGMVGLIIGRGGEQINKIQQDSGCKVQISPDSGGLPERSVSLTGAPESVQKAKMMLDDIVSRGRGGPPGQFHDNANGGQNGTVQEIMIPAGKAGLVIGKGGETIKQLQERAGVKMILIQDGSQNTNVDKPLRIIGDPYKVQQACEMVMDILRERDQGGFGDRNEYGSRVGGGIDVPVPRHSVGVVIGRSGEMIKKIQNDAGVRIQFKQDDGTGPEKIAHIMGPPDRCEHAARIINDLLQSLRSGPPGPPGAPGMPPGGRGRGRGQGNWGPPGGEMTFSIPTHKCGLVIGRGGENVKAINQQTGAFVEISRQLPPNGDPNFKLFVIRGSPQQIDHAKQLIEEKIEGPLCPVGPGPGGPGPAGPMGPFNPGPFNQGPPGAPPHAGGPPPHQYPPQGWGNTYPQWQPPAPHDPNKAAAAATDPNAAWAAYYSHYYQQPPGPVPGPAPAPAAPPAQGEPPQPPPTGQSDYTKAWEEYYKKIGQQPQQPGAPPQQDYTKAWEEYYKKQAQVATGGGPGAPPGSQPDYSAAWAEYYRQQAAYYGQTPGPGGPQPPPTQQGQQQASGNCHPPPPPFSFQPPATVHPALVGSAGNPFPCGVCP",binds
9,"Sart1 (protein, UniProt Q9Z315 1-806) MGSSKKHRGEKEAAGTTAAAGTGGTTEQPPRHREHKKHKHRSSGGGSSGGERRKRSRERGSERGSGRRGAEAEARSGAHGRERSQAEPSERRVKREKRDDGYEAAASSKASSGDASSLSIEETNKLRAKLGLKPLEVNAVKKEAGTKEEPVAADVINPMALRQREELREKLAAAKEKRLLNQKLGKIKTLGEDDPWLDDTAAWIERSRQLQKEKDLAEKRAKLLEEMDQEFGVSTLVEEEFEQRRQDLYSARDLQGLTVEHAIDSFREGETVVLTLKDKGVLQDGEDVLVNVNMVDKERADKNVELRKKKPDYLPYAEDESVDDLAQQKPRSILAKYDEELEGERPHSFRLEQGGMADGLRERELEEIRTKLRLQAQSLSSVGPRLASEYLSPEEMVTFKKTKRRVKKIRKKEKEVIMRADDLLPLGDQTQDGDFGSRLRGRGRRRVPEVEEEALEDEEKDPVAQPPPSDDTRVENMDISDEEDGGALPPGSPEGLEEDEAELELQKQLEKGRRLRQLQQLQQLRDSGEKVLEIVKKLESRQRGWEEEEDPERKGTIVFNATSEFCRTLGEIPTYGLAGNREEQEELMDFERDEERSANGGSESDGEENIGWSTVNLDEEKQHQDFSASSTTILDEEPIVNRGLAAALLLCQNKGLLETTVQKVARVKAPNKSLPSAVYCIEDKMAIDDKYSRREEYRGFTQDFKEKDGYKPDVKIEYVDETGRKLTPKEAFRQLSHRFHGKGSGKMKTERRMKKLDEEALLKKMSSSDTPLGTVALLQEKQKAQKTPYIVLSGSGKSMNANTITK",binds
10,"Prpf6 (protein, UniProt Q91YR7 1-941) MNKKKKPFLGMPAPLGYVPGLGRGATGFTTRSDIGPARDANDPVDDRHAPPGKRTVGDQMKKNQAADDDDEDLNDTNYDEFNGYAGSLFSSGPYEKDDEEADAIYAALDKRMDERRKERREQREKEEIEKYRMERPKIQQQFSDLKRKLAEVTEEEWLSIPEVGDARNKRQRNPRYEKLTPVPDSFFAKHLQTGENHTSVDPRQTQFGGLNTPYPGGLNTPYPGGMTPGLMTPGTGELDMRKIGQARNTLMDMRLSQVSDSVSGQTVVDPKGYLTDLNSMIPTHGGDINDIKKARLLLKSVRETNPHHPPAWIASARLEEVTGKLQVARNLIMKGTEMCPKSEDVWLEAARLQPGDTAKAVVAQAVRHLPQSVRIYIRAAELETDIRAKKRVLRKALEHVPNSVRLWKAAVELEEPEDARIMLSRAVECCPTSVELWLALARLETYENARKVLNKARENIPTDRHIWITAAKLEEANGNTQMVEKIIDRAITSLRANGVEINREQWIQDAEECDRAGSVATCQAVMRAVIGIGIEEEDRKHTWMEDADSCVAHNALECARAIYAYALQVFPSKKSVWLRAAYFEKNHGTRESLEALLQRAVAHCPKAEVLWLMGAKSKWLAGDVPAARSILALAFQANPNSEEIWLAAVKLESENNEYERARRLLAKARSSAPTARVFMKSVKLEWVLGNISAAQELCEEALRHYEDFPKLWMMKGQIEEQGELMEKAREAYNQGLKKCPHSTPLWLLLSRLEEKIGQLTRARAILEKSRLKNPKNPGLWLESVRLEYRAGLKNIANTLMAKALQECPNSGILWSEAVFLEARPQRKTKSVDALKKCEHDPHVLLAVAKLFWSERKITKAREWFHRTVKIDSDLGDAWAFFYKFELQHGTEEQQEEVRKRCENAEPRHGELWCAVSKDITNWQRKIGEILVLVAARIKNTF",binds
11,"Pabpn1 (protein, UniProt Q8CCS6 1-302) MAAAAAAAAAAGAAGGRGSGPGRRRHLVPGAGGEAGEGDPGGAGDYGNGLESEELEPGELLPEPEPEEEPPRPRAPPGAPGPGPGSGAPGSQEEEEEPGLVEADPGDGAIEDPELEAIKARVREMEEEAEKLKELQNEVEKQMNMSPPPGNAGPVIMSLEEKMEADARSIYVGNVDYGATAEELEAHFHGCGSVNRVTILCDKFSGHPKGFAYIEFSDKESVRTSLALDESLFRGRQIKVIPKRTNRPGISTTDRGFPRSRYRARTTNYNSSRSRFYSGFNSRPRGRIYRGRARATSWYSPY",binds
